Here are results for one substance from publication PMC7442491.

Sequences of proteins named here, by UniProt entry; tags and fusion partners are left off. Residues count along the entry.
UniProt O75251, residues 39-213: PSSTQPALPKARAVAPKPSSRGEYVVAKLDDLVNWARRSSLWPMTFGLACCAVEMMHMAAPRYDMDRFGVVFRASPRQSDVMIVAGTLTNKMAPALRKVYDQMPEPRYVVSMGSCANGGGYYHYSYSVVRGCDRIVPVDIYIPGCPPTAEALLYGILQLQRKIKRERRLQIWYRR

These are yes or no findings as the source states them, for the method shown. In cells and extracts the contact can be indirect. A yes stands for co-enrichment or nearness to the bait. Other partners may have been found. Sequences can lack the tags named with a protein.

The experiment deals with T1, human ALKBH7 C-terminal 3xFLAG tag fusion protein (human) (UniProt Q9BT30).
T1 sequence: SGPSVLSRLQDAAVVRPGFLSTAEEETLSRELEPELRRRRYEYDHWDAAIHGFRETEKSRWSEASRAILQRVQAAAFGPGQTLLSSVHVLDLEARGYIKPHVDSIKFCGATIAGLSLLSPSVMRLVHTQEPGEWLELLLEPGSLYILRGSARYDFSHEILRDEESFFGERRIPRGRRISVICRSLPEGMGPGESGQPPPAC
The experiment can be described thus: affinity purification with mass spectrometry; ALKBH7-3xFLAG from transfected HEK 293T whole-cell extract held on FLAG M2 antibody resin, 2 hr at 4°C, 150 mM NaCl, 20 mM HEPES, 0.1% NP-40, pH 7.9; eluted with 3xFLAG peptide; SDS-PAGE bands cut and identified by LC-MS/MS; baseline or MMS-treated …; proteins of the vector-only control eliminated.

Take “NDUFS7 subunit of respiratory complex I (from UniProt O75251 39-213)”: the binding result was “binds”.
